Source: doi:10.1101/821637
Results are given in words; binding and its absence hold for the method and conditions named. In cells and extracts the contact can be indirect. Some binding calls cover weakened binding; strength is not graded here. For part of these data: Where a sequence is shown, tags or fusion partners need not be part of it.

B1: V5-tagged mouse UCP3 construct (UCP3-V5) (protein, UniProt P56501 1-308)
chain: MVGLQPSEVPPTTVVKFLGAGTAACFADLLTFPLDTAKVRLQIQGENPGAQSVQYRGVLGTILTMVRTEGPRSPYSGLVAGLHRQMSFASIRIGLYDSVKQFYTPKGADHSSVAIRILAGCTTGAMAVTCAQPTDVVKVRFQAMIRLGTGGERKYRGTMDAYRTIAREEGVRGLWKGTWPNITRNAIVNCAEMVTYDIIKEKLLESHLFTDNFPCHFVSAFGAGFCATVVASPVDVVKTRYMNAPLGRYRSPLHCMLKMVAQEGPTAFYKGFVPSFLRLGAWNVMMFVTYEQLKRALMKVQVLRESPF
B2: endogenous ECH1 of differentiated C2C12 myotubes (enzyme, UniProt O35459 34-327)
chain: LSSSAQEASKRAPEEVSDHNYESIQVTSAQKHVLHVQLNRPEKRNAMNRAFWRELVECFQKISKDSDCRAVVVSGAGKMFTSGIDLMDMASELMQPSGDDAARIAWYLRDLISKYQKTFTVIEKCPKPVIAAIHGGCIGGGVDLVSACDIRYCTQDAFFQIKEVDMGLAADVGTLQRLPKVIGNQSLVNELTFSARKMMADEALDSGLVSRVFQDKDAMLNAAFALAADISSKSPVAVQGSKINLIYSRDHSVDESLDYMATWNMSMLQTQDIIKSVQAAMEKRDTKSITFSKL

Experiments:
Assay in all cases: co-IP
[1] = target: T1, Myc-tagged ECH1 mutant D176N-Myc (mouse) (UniProt O35459)
T1 sequence: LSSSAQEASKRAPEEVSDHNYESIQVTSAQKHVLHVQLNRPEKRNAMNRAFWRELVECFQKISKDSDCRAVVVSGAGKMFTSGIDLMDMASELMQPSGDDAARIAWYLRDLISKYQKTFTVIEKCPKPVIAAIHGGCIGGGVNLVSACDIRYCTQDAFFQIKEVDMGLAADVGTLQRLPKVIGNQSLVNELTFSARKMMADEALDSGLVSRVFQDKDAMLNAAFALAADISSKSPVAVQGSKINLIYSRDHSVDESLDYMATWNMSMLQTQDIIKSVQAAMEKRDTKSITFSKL

[2] = target: T2, Myc-tagged mouse ECH1 construct (ECH1-Myc) (mouse) (UniProt O35459)
T2 sequence: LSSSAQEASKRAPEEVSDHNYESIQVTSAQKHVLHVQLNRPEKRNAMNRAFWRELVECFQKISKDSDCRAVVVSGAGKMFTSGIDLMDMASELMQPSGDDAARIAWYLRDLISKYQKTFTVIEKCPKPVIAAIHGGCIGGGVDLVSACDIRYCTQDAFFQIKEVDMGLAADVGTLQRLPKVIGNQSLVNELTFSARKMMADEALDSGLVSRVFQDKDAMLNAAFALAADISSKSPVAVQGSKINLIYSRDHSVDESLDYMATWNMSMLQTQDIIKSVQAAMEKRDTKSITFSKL

[3] = target: T3, endogenous UCP3 of differentiated C2C12 myotubes (mouse (endogenous in C2C12)) (UniProt P56501)
T3 sequence: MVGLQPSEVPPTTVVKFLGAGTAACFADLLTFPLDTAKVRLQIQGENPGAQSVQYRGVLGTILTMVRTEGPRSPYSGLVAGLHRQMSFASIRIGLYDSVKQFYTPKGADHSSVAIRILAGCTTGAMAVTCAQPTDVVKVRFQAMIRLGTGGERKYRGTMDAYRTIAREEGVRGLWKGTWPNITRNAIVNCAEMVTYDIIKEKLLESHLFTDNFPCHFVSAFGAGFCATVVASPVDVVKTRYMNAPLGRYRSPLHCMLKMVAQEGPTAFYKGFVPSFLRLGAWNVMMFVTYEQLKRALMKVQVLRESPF

| Binder | binding [1] | binding [2] | binding [3] |
| --- | --- | --- | --- |
| B1 | binds | binds |  |
| B2 |  |  | binds |
